No constants are given. Whether binding was seen depends on the method and setting. Binding seen in cells or lysates may run through a third protein. These calls come from enrichment with a bait or labelling near it, and not all partners need be listed. For some assays here: Tags and fused reporters may be left off the sequences shown.
B1: Spt5 (budding yeast) (protein, UniProt P27692 1-1063)
chain: MSDNSDTNVSMQDHDQQFADPVVVPQSTDTKDENTSDKDTVDSGNVTTTESTERAESTSNIPPLDGEEKEAKSEPQQPEDNAETAATEQVSSSNGPATDDAQATLNTDSSEANEIVKKEEGSDERKRPREEDTKNSDGDTKDEGDNKDEDDDEDDDDDDDDEDDDDEAPTKRRRQERNRFLDIEAEVSDDEDEDEDEEDSELVREGFITHGDDEDDEASAPGARRDDRLHRQLDQDLNKTSEEDAQRLAKELRERYGRSSSKQYRAAAQDGYVPQRFLLPSVDTATIWGVRCRPGKEKELIRKLLKKKFNLDRAMGKKKLKILSIFQRDNYTGRIYIEAPKQSVIEKFCNGVPDIYISQKLLIPVQELPLLLKPNKSDDVALEEGSYVRIKRGIYKGDLAMVDQISENNLEVMLKIVPRLDYGKFDEIDPTTQQRKSRRPTFAHRAPPQLFNPTMALRLDQANLYKRDDRHFTYKNEDYIDGYLYKSFRIQHVETKNIQPTVEELARFGSKEGAVDLTSVSQSIKKAQAAKVTFQPGDRIEVLNGEQRGSKGIVTRTTKDIATIKLNGFTTPLEFPISTLRKIFEPGDHVTVINGEHQGDAGLVLMVEQGQVTFMSTQTSREVTITANNLSKSIDTTATSSEYALHDIVELSAKNVACIIQAGHDIFKVIDETGKVSTITKGSILSKINTARARVSSVDANGNEIKIGDTIVEKVGSRREGQVLYIQTQQIFVVSKKIVENAGVFVVNPSNVEAVASKDNMLSNKMDLSKMNPEIISKMGPPSSKTFQQPIQSRGGREVALGKTVRIRSAGYKGQLGIVKDVNGDKATVELHSKNKHITIDKHKLTYYNREGGEGITYDELVNRRGRVPQARMGPSYVSAPRNMATGGIAAGAAATSSGLSGGMTPGWSSFDGGKTPAVNAHGGSGGGGVSSWGGASTWGGQGNGGASAWGGAGGGASAWGGQGTGATSTWGGASAWGNKSSWGGASTWASGGESNGAMSTWGGTGDRSAYGGASTWGGNNNNKSTRDGGASAWGNQDDGNRSAWNNQGNKSNYGGNSTWGGH

Sequences of proteins named here, by UniProt entry; tags and fusion partners are left off. A change or cut given only in a name is not applied to a line headed by its entry. Residues count along the entry.
UniProt P29469, residues 1-200: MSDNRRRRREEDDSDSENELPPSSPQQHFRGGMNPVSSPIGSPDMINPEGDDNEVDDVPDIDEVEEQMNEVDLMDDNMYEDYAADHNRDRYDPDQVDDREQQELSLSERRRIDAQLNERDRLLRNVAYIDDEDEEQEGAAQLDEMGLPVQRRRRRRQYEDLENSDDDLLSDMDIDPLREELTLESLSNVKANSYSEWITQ
UniProt P02293: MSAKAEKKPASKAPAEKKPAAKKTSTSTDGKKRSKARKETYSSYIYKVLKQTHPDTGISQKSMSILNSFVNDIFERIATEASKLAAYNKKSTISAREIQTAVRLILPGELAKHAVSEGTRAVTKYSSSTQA
UniProt P38110: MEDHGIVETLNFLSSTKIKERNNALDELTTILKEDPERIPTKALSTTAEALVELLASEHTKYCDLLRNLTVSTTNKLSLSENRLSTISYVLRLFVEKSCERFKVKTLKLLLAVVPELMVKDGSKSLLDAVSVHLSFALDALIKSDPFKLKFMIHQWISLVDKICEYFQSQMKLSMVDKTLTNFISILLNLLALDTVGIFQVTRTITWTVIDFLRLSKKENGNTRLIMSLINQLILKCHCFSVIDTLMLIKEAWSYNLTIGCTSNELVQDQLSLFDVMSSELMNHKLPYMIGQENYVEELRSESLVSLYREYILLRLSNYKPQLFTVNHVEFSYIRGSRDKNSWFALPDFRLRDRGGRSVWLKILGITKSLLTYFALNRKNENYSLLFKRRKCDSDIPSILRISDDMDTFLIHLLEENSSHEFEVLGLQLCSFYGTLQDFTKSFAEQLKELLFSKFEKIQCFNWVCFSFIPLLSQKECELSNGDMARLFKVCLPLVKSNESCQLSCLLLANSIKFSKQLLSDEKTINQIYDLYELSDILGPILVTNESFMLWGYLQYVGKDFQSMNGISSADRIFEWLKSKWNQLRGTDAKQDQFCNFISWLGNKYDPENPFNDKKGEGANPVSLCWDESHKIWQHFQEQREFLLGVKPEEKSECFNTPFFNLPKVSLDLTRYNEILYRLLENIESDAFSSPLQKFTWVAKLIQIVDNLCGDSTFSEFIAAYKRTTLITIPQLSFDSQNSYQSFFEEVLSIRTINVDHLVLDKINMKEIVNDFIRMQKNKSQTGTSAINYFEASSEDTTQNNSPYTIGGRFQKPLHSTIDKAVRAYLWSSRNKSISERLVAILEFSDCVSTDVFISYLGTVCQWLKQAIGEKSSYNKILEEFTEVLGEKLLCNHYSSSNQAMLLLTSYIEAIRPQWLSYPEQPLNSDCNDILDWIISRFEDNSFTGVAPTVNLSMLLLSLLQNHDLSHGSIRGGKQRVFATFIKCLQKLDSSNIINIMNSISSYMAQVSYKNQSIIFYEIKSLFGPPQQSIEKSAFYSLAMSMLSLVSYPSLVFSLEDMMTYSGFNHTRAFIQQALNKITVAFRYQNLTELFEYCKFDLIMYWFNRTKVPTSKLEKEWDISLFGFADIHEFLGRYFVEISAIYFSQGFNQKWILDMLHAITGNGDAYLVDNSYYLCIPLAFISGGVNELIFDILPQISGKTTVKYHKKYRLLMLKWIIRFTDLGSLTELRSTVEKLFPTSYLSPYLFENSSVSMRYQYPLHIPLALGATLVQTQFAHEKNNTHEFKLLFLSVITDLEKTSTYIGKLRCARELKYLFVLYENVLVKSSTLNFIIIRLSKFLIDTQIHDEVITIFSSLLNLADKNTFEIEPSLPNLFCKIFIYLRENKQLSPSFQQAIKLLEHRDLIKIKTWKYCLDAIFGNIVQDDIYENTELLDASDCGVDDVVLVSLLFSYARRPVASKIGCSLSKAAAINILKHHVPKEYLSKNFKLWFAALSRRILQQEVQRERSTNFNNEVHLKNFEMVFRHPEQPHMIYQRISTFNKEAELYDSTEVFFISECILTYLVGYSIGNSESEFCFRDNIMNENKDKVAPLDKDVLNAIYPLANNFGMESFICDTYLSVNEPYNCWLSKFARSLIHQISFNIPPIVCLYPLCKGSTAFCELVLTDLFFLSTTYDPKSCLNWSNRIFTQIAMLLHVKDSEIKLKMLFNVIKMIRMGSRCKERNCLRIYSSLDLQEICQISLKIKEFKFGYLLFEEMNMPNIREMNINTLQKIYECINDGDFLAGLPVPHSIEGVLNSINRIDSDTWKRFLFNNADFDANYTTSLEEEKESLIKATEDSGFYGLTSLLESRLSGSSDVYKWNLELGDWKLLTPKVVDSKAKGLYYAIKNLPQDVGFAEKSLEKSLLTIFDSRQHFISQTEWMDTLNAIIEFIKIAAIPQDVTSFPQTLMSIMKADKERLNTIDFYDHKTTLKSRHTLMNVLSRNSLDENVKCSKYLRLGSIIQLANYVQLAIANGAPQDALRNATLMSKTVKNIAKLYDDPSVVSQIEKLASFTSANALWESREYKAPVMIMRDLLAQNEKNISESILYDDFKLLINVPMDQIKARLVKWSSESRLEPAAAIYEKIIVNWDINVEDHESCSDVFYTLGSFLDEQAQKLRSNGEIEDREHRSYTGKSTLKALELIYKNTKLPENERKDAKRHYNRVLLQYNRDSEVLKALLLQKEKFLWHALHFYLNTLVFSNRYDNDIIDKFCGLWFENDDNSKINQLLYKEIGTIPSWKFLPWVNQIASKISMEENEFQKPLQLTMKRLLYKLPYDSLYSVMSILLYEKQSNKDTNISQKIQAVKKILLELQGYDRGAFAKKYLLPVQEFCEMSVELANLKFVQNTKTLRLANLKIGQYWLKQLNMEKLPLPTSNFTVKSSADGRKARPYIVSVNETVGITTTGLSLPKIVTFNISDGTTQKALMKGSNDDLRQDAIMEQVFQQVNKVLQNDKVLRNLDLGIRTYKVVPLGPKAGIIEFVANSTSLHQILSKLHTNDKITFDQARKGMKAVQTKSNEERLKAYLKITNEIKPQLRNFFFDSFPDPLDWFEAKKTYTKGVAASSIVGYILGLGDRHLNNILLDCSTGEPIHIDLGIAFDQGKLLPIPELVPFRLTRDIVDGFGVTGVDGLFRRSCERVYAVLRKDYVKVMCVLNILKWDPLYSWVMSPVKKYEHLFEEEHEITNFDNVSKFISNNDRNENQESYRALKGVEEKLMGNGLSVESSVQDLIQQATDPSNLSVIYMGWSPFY

How the values were obtained:
[1] = biological target: Mcm2NT (Mcm2 1–200 fused to Protein A) (S. cerevisiae) (UniProt P29469); assay: affinity purification with mass spectrometry; Protein A-tagged fragments isolated on IgG-coated magnetic beads from G2-M yeast extracts, +DNase; gel lane cut into 40 bands, Orbitrap Velos
[2] = biological target: T1, Pol1NT (first 351 amino acids of budding yeast Pol1 fused to Protein A) (S. cerevisiae) (UniProt P13382); assay: as above
T1 sequence: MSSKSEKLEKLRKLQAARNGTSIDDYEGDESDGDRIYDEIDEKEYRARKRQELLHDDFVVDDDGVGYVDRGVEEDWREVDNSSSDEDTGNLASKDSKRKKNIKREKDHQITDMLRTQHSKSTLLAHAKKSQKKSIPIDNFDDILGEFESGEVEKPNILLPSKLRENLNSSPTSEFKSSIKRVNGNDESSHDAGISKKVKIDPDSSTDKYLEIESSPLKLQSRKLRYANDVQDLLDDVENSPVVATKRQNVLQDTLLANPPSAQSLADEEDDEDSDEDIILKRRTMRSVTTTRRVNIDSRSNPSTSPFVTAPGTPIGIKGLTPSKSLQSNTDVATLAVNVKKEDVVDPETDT

[3] = biological target: T1, Pol1NT (first 351 amino acids of budding yeast Pol1 fused to Protein A) (S. cerevisiae); assay: affinity purification with mass spectrometry; Protein A-tagged fragments isolated on IgG-coated magnetic beads from G2-M yeast extracts, −DNase; gel lane cut into 40 bands, Orbitrap Velos
[4] = biological target: T1, Pol1NT (first 351 amino acids of budding yeast Pol1 fused to Protein A) (S. cerevisiae); assay: affinity purification with mass spectrometry; Protein A-tagged fragments isolated on IgG-coated magnetic beads from G2-M yeast extracts, +DNase; gel lane cut into 40 bands, Orbitrap Velos; remark: listed apart in the source

| binding [1] | binding [2] | binding [3] | binding [4] | Molecule |
| --- | --- | --- | --- | --- |
| binds | binds | – | – | Histone H2B (budding yeast) (from UniProt P02293) |
| – | binds | binds | – | Tel1 checkpoint kinase (budding yeast) (from UniProt P38110 1-2787) |
| – | – | – | binds | B1 |

Reference: PMC6166128
